# PubChem BioAssay AID1224827 | NIAID, 2016
# Test: 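Identify regulators of the macrophage TNF-alpha response to bacterial LPS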 (follow-up of hits)
# Cell system: RAW264.7 G9 mouse macrophage reporter clone
# Reagent: single siRNA against mouse genes, 100 nM siRNA
# Timing: siRNA for 2 days, then LPS about 16 h
# Conditions: bacterial lipopolysaccharide (LPS), 10 ng/ml, cells fixed after overnight (about 16 h) stimulation
# Read-out: 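Imaged nuclear TNF reporter intensity, background removed, scaled per plate and to non-targeting control wells, as z-scores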
# Direction: TNF reporter z-score, mean and TNF reporter z-score: higher = stronger Tnf promoter reporter signal; gene median z, three same-vendor siRNAs: higher = stronger Tnf reporter signal for the gene
# Hit rule: 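Active siRNA: replicate-mean z-score of 2 or more, or -2 or less; no calls for control wells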
# Shown is an unselected part of about 3,800 reagents. In the full data, about 2,200 (57%) are marked active. 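Active means a strong reporter change in either direction; calls are per siRNA, not per gene; qiagen siRNAs gave weaker effects.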 The numbers tell different reagents against one gene apart.
gene symbol,siRNA no.,"TNF reporter z-score, mean","gene median z, three same-vendor siRNAs","TNF reporter z-score, repeat 1","TNF reporter z-score, repeat 2",call
Paox,1,-1.71,-3.88,-1.8,-1.61,inactive
Paox,2,-3.97,-3.88,-3.74,-4.19,active
Paox,3,-4.23,-3.88,-4.43,-4.02,active
Paox,4,0.272,-1.19,1.83,-1.29,inactive
Paox,5,-0.543,-1.19,0.417,-1.5,inactive
Paox,6,-1.6,-1.19,-1.1,-2.1,inactive
Fabp6,1,4.06,2.59,2.84,5.27,active
Fabp6,2,2.82,2.59,3.3,2.34,active
Fabp6,3,-3.29,2.59,-3.36,-3.23,active
Fabp6,4,1.02,-1.04,3.51,-1.46,inactive
Fabp6,5,0.584,-1.04,2.14,-0.968,inactive
Fabp6,6,-1.38,-1.04,-1.65,-1.11,inactive
Tnfrsf13c,1,5.08,3.06,3.93,6.23,active
Tnfrsf13c,2,3.06,3.06,2.45,3.68,active
Tnfrsf13c,3,-1.98,3.06,-2.95,-1,inactive
Tnfrsf13c,4,1.1,-0.375,2.77,-0.564,inactive
Tnfrsf13c,5,-0.587,-0.375,-0.186,-0.987,inactive
Tnfrsf13c,6,-0.564,-0.375,0.03,-1.16,inactive
Ssb,1,-2.79,-3.45,-3.16,-2.41,active
Ssb,2,-3.25,-3.45,-4.43,-2.08,active
Ssb,3,-4.06,-3.45,-3.73,-4.39,active
Ssb,4,4.3,0.521,7.76,0.851,active
Ssb,5,0.93,0.521,1.67,0.19,inactive
Ssb,6,-1.8,0.521,-2.07,-1.53,inactive
Supt20,1,-0.189,-3.16,-1.25,0.873,inactive
Supt20,2,-3.59,-3.16,-4.46,-2.72,active
Supt20,3,-3.82,-3.16,-3.6,-4.04,active
Supt20,4,2.53,-2.98,5.03,0.0287,active
Supt20,5,-2.98,-2.98,-3.4,-2.57,active
Supt20,6,-4.22,-2.98,-4.54,-3.89,active
Exosc1,1,0.855,-3.97,2.7,-0.991,inactive
Exosc1,2,-4.15,-3.97,-4.52,-3.79,active
Exosc1,3,-4.9,-3.97,-4.16,-5.64,active
Exosc1,4,0.331,-1.36,1.61,-0.953,inactive
Exosc1,5,0.138,-1.36,2.56,-2.28,inactive
Exosc1,6,-1.95,-1.36,-1.76,-2.13,inactive

Look-ups from the list:
For “gene median z, three same-vendor siRNAs”, Supt20 #4 reads -2.98
Result of Fabp6 #4 under “gene median z, three same-vendor siRNAs”: -1.04
Entry for Supt20 #6 under “TNF reporter z-score, mean”: -4.22
Under “gene median z, three same-vendor siRNAs”, Supt20 #1 is entered as -3.16
Exosc1 #2, gene median z, three same-vendor siRNAs: -3.97

Next results follow:
gene symbol,siRNA no.,"TNF reporter z-score, mean","gene median z, three same-vendor siRNAs","TNF reporter z-score, repeat 1","TNF reporter z-score, repeat 2",call
Klhdc3,1,-1.58,-1.98,-2.12,-1.05,inactive
Klhdc3,2,-2.15,-1.98,-1.85,-2.45,active
Klhdc3,3,-2.06,-1.98,-3.22,-0.898,active
Klhdc3,4,4.15,0.841,6.69,1.62,active
Klhdc3,5,3.26,0.841,6.46,0.0612,active
Klhdc3,6,-0.408,0.841,-0.162,-0.654,inactive
Zscan21,1,-2.17,-3.76,-2.18,-2.16,active
Zscan21,2,-4.09,-3.76,-3.54,-4.65,active
Zscan21,3,-4.09,-3.76,-4.2,-3.98,active
Zscan21,4,1.52,-0.54,3.31,-0.262,inactive
Zscan21,5,0.4,-0.54,1.85,-1.05,inactive
Zscan21,6,-1.48,-0.54,-0.817,-2.15,inactive
Xpa,1,2.94,0.645,1.83,4.04,active
Xpa,2,-0.144,0.645,-0.882,0.594,inactive
Xpa,3,-0.205,0.645,-1.11,0.696,inactive
Xpa,4,3.69,0.641,6.51,0.873,active
Xpa,5,1.71,0.641,4.17,-0.751,inactive
Xpa,6,0.195,0.641,-0.0196,0.409,inactive
Hc,1,1.16,-2.34,0.163,2.15,inactive
Hc,2,-2.64,-2.34,-1.31,-3.97,active
Hc,3,-3.55,-2.34,-3.73,-3.37,active
Hc,4,1.66,1.05,3.46,-0.147,inactive
Hc,5,0.618,1.05,2.25,-1.02,inactive
Hc,6,0.357,1.05,2.67,-1.96,inactive
